From the supplement of paper PMC9433722
Counter-ions that a name gives are not always drawn. This is one part of the list. Many values rest on one well or one pass, so single values are uncertain.

Experiments:
Saos-2 = experiment: cell viability (CCK-8) relative to DMSO control (% of control); higher = less cytotoxic; details: 10 µM; 48 h
U2OS = experiment: as above; details: 10 µM; 48 h

Row | SMILES | cell viability (Saos-2) | cell viability (U2OS)
1 | Nc1ncn([C@H]2C[C@H](O)[C@@H](CO)O2)c(=O)n1 [Decitabine] | 70.5 | 88.4
2 | CO[C@H]1/C=C/O[C@@]2(C)Oc3c(C)c(O)c4c(O)c(c5c(nc6cc(C)ccn65)c4c3C2=O)NC(=O)/C(C)=C\C=C\[C@H](C)[C@H](O)[C@@H](C)[C@@H](O)[C@@H](C)[C@H](OC(C)=O)[C@@H]1C [Rifaximin] | 109 | 103
3 | CN(C/C=C/C#CC(C)(C)C)Cc1cccc2ccccc12 [Terbinafine·HCl] | 60.9 | 118
4 | Cc1ccsc1C(=CCCN1CCC[C@@H](C(=O)O)C1)c1sccc1C [Tiagabine·HCl] | 109 | 96.6
5 | O=C(O)COCCN1CCN([C@H](c2ccccc2)c2ccc(Cl)cc2)CC1 [Levocetirizine Dihydrochloride] | 109 | 95
6 | Oc1ccc(C2CNCCc3c2cc(O)c(O)c3Cl)cc1 (configuration not stated) [Fenoldopam Mesylate] | 64.4 | 105
7 | CC1(C)NC(=O)N(c2ccc([N+](=O)[O-])c(C(F)(F)F)c2)C1=O [Nilutamide] | 112 | 98
8 | CC(=O)Oc1ccccc1C(=O)Nc1ncc([N+](=O)[O-])s1 [Nitazoxanide] | 106 | 117
9 | S=c1[nH]cnc2nc[nH]c12 [6-Mercaptopurine Monohydrate] | 85.9 | 72
10 | O=C(O)CCc1nc(-c2ccccc2)c(-c2ccccc2)o1 [Oxaprozin] | 110 | 108
11 | O=C(CCCCCCC(=O)Nc1ccccc1)NO [Vorinostat (SAHA)] | 23.8 | 17.9
